For eleven substances, step yield and conjugation yield results are on record in patent US20230010108 (published 2023).

A short description of the data set: general procedure: solution-phase peptide synthesis; perfluorophenyl ester, DIPEA. The note with it: for conjugation yield: conjugation step.

Substance “(2R,3R)-methyl 3-((S)-1-((3R,4S,5S)-4-((S)-2-(2-(dimethylamino)-2-methylpropanamido)-N,3-dimethylbutanamido)-3-methoxy-5-methylheptanoyl)pyrrolidin-2-yl)-3-methoxy-2-methylpropanoate” had a step yield (coupling step) of 100% yield.
In turn, “(2S)-2-((2R,3R)-3-((2S)-1-((11S,14S,17S)-1-amino-17-((R)-sec-butyl)-11,14-diisopropyl-18-methoxy-10,16-dimethyl-9,12,15-trioxo-3,6-dioxa-10,13,16-triazaicosan-20-oyl)pyrrolidin-2-yl)-3-methoxy-2-methylpropanamido)-3-phenylpropanoic Acid” had a step yield (late stage modification step) of 92%.
Turning to “(2S)-2-((2R,3R)-3-((2S)-1-((11S,14S,17S)-1-azido-17-((R)-sec-butyl)-11,14-diisopropyl-18-methoxy-10,16-dimethyl-9,12,15-trioxo-3,6-dioxa-10,13,16-triazaicosan-20-oyl)pyrrolidin-2-yl)-3-methoxy-2-methylpropanamido)-3-phenylpropanoic Acid”, the conjugation yield was 82%.
“(4R)-4-(2-((1R,3R)-1-acetoxy-3-((2S,3S)—N,3-dimethyl-2-((R)-1-methyl-piperidine-2-carboxamido)pentanamido)-4-methylpentyl)thiazole-4-carboxamido)-5-(3-(3-(2-(2-aminoethoxy)ethoxy)propanamido)-4-hydroxyphenyl)-2-methylpentanoic Acid” returned a step yield (late stage modification step) of 79%.
Consider “(4R)-4-(2-((1R,3R)-1-acetoxy-3-((2S,3S)—N,3-dimethyl-2-((R)-1-methylpiperidine-2-carboxamido)pentanamido)-4-methylpentyl)thiazole-4-carboxamido)-5-(3-(3-(2-(2-azidoethoxy)ethoxy)propanamido)-4-hydroxyphenyl)-2-methylpentanoic acid”, for which the conjugation yield amounted to 82%.
As for “(4R)-4-(2-((3S,6S,9R,11R)-6-((S)-sec-butyl)-3,9-diisopropyl-8-methyl-4,7,13-trioxo-12-oxa-2,5,8-triazatetradecan-11-yl)thiazole-4-carboxamido)-2-methyl-5-phenylpentanoic Acid Hydrochloride Salt”, the step yield (late stage modification step, hydrochloride salt) is 103%.
In the case of “(S)-2-((2R,3R)-3-((S)-1-((3R,4S,5S)-4-((S)—N,3-dimethyl-2-((S)-3-methyl-2-(methylamino)butanamido)butanamido)-3-methoxy-5-methylheptanoyl)-pyrrolidin-2-yl)-3-methoxy-2-methylpropanamido)-3-phenylpropanoic Acid”, the step yield entry runs as follows: (late stage modification step, run 1) “˜100%”; (late stage modification step, run 2) 90%.
For the substance “(S)-2-((2R,3R)-3-((S)-1-((6S,9S,12S,13R)-12-((S)-sec-butyl)-6,9-diisopropyl-13-methoxy-2,2,5,11-tetramethyl-4,7,10-trioxo-3-oxa-5,8,11-triazapenta-decan-15-oyl)pyrrolidin-2-yl)-3-methoxy-2-methylpropanamido)-3-phenylpropanoic Acid”, the step yield (late stage modification step) turned out to be 85%.
The same measure, in the same setting: to “(S)-methyl 2-((2R,3R)-3-((S)-1-((3R,4S,5S)-4-((S)-2-((S)-2-((S)-2-amino-N-methylpropanamido)-3-methylbutanamido)-N,3-dimethylbutanamido)-3-methoxy-5-methylheptanoyl)pyrrolidin-2-yl)-3-methoxy-2-methylpropanamido)-3-phenylpropanoate” belongs 96%.
For “(S)-methyl 2-((2R,3R)-3-((S)-1-((6S,9S,12S,13R)-12-((S)-sec-butyl)-6,9-diisopropyl-13-methoxy-2,2,5,11-tetramethyl-4,7,10-trioxo-3-oxa-5,8,11-triazapentadecan-15-oyl)pyrrolidin-2-yl)-3-methoxy-2-methylpropanamido)-3-phenylpropanoate”, the step yield (coupling step) came to 39%.
The substance “(S,S,R,R,2S,2′S,4R,4′R)-5,5′-((((7S,15R,16S,24S)-15,16-bis(3-(2,5-dioxo-2,5-dihydro-1H-pyrrol-1-yl)propanamido)-6,9,14,17,22,25-hexaoxo-7,24-bis(30-oxo-2,5,9,12,15,18,21,24,27-nonaoxa-31-azapentatriacontan-35-yl)-5,8,13,18,23,26-hexaazatriacontane-1,30-dioyl)bis(azanediyl))bis(4-hydroxy-3,1-phenylene))bis(4-(2-((6S,9R,11R)-6-((S)-sec-butyl)-9-isopropyl-2,3,3,8-tetramethyl-4,7,13-trioxo-12-oxa-2,5,8-triazatetradecan-11-yl)thiazole-4-carboxamido)-2-methylpentanoic acid)” registered a step yield (coupling step) of 48% yield.
